The exact form of at least one protein or probe is not confirmed. No signal at the amounts used counts as a negative. For some of these results: Where a protein sequence is shown, tags need not be part of it.
Columns and labels:
Test in all cases: SPR
CCL5 (Homo sapiens) = target: T1, CCL5 (Homo sapiens) (UniProt P13501); conditions: L-RNA; 5'-amino linker coupled to DBCO, immobilised; biosensor; no binding up to 12.5 nM CCL5; 25 C; purified recombinant protein; mirror-image nucleic acid; variant of 315-F8-002 (L)
T1 sequence: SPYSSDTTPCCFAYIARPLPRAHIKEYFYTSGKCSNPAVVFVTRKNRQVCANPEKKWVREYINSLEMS

By UniProt entry, the sequences of proteins in these tests, tags left out. Residues count along the entry.
UniProt P09341, 35-107: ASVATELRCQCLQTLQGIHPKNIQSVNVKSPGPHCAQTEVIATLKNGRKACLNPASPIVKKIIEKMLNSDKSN
UniProt P19875, 35-107: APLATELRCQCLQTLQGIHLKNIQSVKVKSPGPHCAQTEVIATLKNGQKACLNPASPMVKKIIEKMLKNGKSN
UniProt P19876, 35-107: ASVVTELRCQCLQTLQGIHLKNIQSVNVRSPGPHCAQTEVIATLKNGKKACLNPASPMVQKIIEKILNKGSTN
UniProt P42830, 37-114: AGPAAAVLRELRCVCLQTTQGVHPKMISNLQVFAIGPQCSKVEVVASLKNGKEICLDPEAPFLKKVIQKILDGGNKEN
UniProt P80162, 38-114: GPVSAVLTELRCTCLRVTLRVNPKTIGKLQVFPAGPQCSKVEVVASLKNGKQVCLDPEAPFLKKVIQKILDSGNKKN

CXCL1 (Homo sapiens) = CXCL1 (Homo sapiens) (UniProt P09341); conditions: L-RNA; purified recombinant protein; protein details: RnD Systems, PeproTech or ProSpecTech; mirror-image nucleic acid; variant of 315-F8-001 (L)
CXCL2 (Homo sapiens) = CXCL2 (Homo sapiens) (UniProt P19875); conditions: L-RNA; purified recombinant protein; protein details: RnD Systems, PeproTech or ProSpecTech; mirror-image nucleic acid; variant of 315-F8-001 (L)
CXCL3 (Homo sapiens) = CXCL3 (Homo sapiens) (UniProt P19876); conditions: L-RNA; purified recombinant protein; protein details: RnD Systems, PeproTech or ProSpecTech; mirror-image nucleic acid; variant of 315-F8-001 (L)
CXCL5 (Homo sapiens) = CXCL5 (Homo sapiens) (UniProt P42830); conditions: L-RNA; purified recombinant protein; protein details: RnD Systems, PeproTech or ProSpecTech; mirror-image nucleic acid; variant of 315-F8-001 (L)
CXCL6 (Homo sapiens) = CXCL6 (Homo sapiens) (UniProt P80162); conditions: L-RNA; purified recombinant protein; protein details: RnD Systems, PeproTech or ProSpecTech; mirror-image nucleic acid; variant of 315-F8-001 (L)
CXCL7 (Homo sapiens) = target: T2, CXCL7 (Homo sapiens) (UniProt P02775); conditions: L-RNA; purified recombinant protein; protein details: RnD Systems, PeproTech or ProSpecTech; mirror-image nucleic acid; variant of 315-F8-001 (L)
T2 sequence: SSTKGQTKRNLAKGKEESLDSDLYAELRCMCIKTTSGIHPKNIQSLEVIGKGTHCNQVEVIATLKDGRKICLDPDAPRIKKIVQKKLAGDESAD

Measured: binding result

CUGACGGAAGUACGUGGAAAGCCGAAAGUGUGUCCCGGUCAG [315-F8-002-DBCO]
no binding: CCL5 (Homo sapiens)

CUGACGGAAGUACGUGGAAAGCCGAAAGUGUGUCCCGGUCAG [315-F8-002 (L)]
not listed: CCL5 (Homo sapiens)
no binding: all other assays above
